Data from PubChem BioAssay AID1487 (National Center for Advancing Translational Sciences (NCATS), 2009).
The other results are listed elsewhere or left out. The main result of the screen is listed elsewhere. These columns were measured beside it and carry no call. Compounds called inactive in the main read-out are mostly missing here. Potencies come from curve fits of mixed quality, noted in brackets.

Experiment: qHTS Assay for Modulators of Lamin A Splicing
Conditions: HeLa LMNA splicing GFP/RFP minigene ratio, 48 h
Procedure, shortened: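 S3 HeLa cells stably expressing lamin A-EGFP splicing minigene plus DsRed2, 600 cells/well, 48 h compound exposure at 37C. Laser-scanning cytometry; analysed as GFP (500-530 nm)/RFP (575-640 nm) total intensity ratio; 0.5% DMSO vehicle.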

[1] = measured here: GFP splicing reporter channel
[2] = measured here: RFP viability control channel

Row | SMILES | AC50 [1] | AC50 [2]
1 | S=C(NCc1ccc(Cl)cc1Cl)NC1CCCCC1 | 6.31 µM [rising, partial curve] | 15.8 µM [rising, partial curve]
2 | CCOc1ccc([N+](=O)[O-])c(N)c1 | 0.355 µM [falling, partial curve, poor fit] | 0.0562 µM [falling, full curve]
3 | CCC(C)Nc1nc(-c2ccc3c(c2)NC(=O)CO3)cs1 (configuration not stated) | 12.6 µM [rising, single point] | 14.1 µM [rising, single point]
4 | Cc1ccc(S(=O)(=O)N2CCCCC2)cc1C(=O)Nc1ccc2cn[nH]c2c1 | – | 35.5 µM [rising, single point]
5 | Cc1ccccc1CN1C[C@@H]2C[C@@H](c3cnc(N4CCOCC4)s3)N3CCC[C@@]23C1=O | 11.2 µM [falling, partial curve, poor fit] | 10 µM [falling, partial curve]
6 | O=C(/C=C/c1ccccc1)Nc1nnc(-c2ccco2)o1 | – | 35.5 µM [rising, partial curve, poor fit]
7 | Cc1ccc2ncccc2c1NS(=O)(=O)c1ccccc1 | – | 31.6 µM [rising, single point]
8 | O=C(COc1ccccc1)Nc1ccncc1 | 0.501 µM [falling, full curve, poor fit] | 28.2 µM [falling, partial curve, poor fit]
9 | COc1ccc(C(=O)NCC(c2ccc(N(C)C)cc2)N2CCCC2)c(OC)c1 (configuration not stated) | – | 1.78 µM [rising, single point]
10 | COc1ccccc1OCC(=O)Nc1nc2c(s1)CC(C)CC2 (configuration not stated) | – | 0.0112 µM [falling, full curve]
11 | CCC(C(=O)NC1CCCCC1)n1c(SCc2ccc(F)cc2)nc2ccncc21 (configuration not stated) | – | 8.91 µM [rising, partial curve]
12 | CC(=O)c1ccc(NS(=O)(=O)c2cc(-c3cc(C)no3)ccc2C)cc1 | – | 0.501 µM [rising, full curve, poor fit]
13 | O=S(=O)(/C=C/c1ccccc1)N1CCN(c2ccc(F)cc2)CC1 | 22.4 µM [rising, single point] | 35.5 µM [rising, single point]
14 | COc1ccc(N=NC2=C(O)CC(C)(C)CC2=O)cc1 | 7.94 µM [rising, partial curve, poor fit] | –
15 | Cc1cccc(/N=C/c2c(O)[nH]c3ccccc23)n1 | 15.8 µM [rising, single point] | –
16 | CCOC(=O)/C(=C\c1ccc([N+](=O)[O-])o1)NC(=O)c1ccccc1 | 14.1 µM [falling, single point] | 15.8 µM [falling, partial curve, poor fit]
17 | Cc1cc(NS(=O)(=O)c2ccc(NC(=O)CSc3nnc(-c4ccco4)n3C)cc2)nc(C)n1 | 1.26 µM [rising, full curve, poor fit] | 0.891 µM [rising, full curve, poor fit]
18 | O=C(CCl)NC(=O)NC12CC3CC(CC(C3)C1)C2 | – | 12.6 µM [rising, partial curve]
19 | CCCN(CC(=O)c1cc(C)n(C)c1C)S(=O)(=O)c1cccc(C(F)(F)F)c1 | 25.1 µM [rising, single point] | 35.5 µM [rising, single point]
20 | Cc1c(Br)c(C(F)(F)F)nn1CC(=O)NCCCn1ccnc1 | 28.2 µM [falling, partial curve, poor fit] | 0.002 µM [falling, full curve, poor fit]
21 | COCCn1c(C)cc(C(=O)CSc2nnc(C)s2)c1C | 6.31 µM [rising, full curve, poor fit] | –
22 | CC(=O)/C(=N\Nc1ccc(C)cc1)N1CCOCC1 | – | 0.0355 µM [falling, full curve, poor fit]
23 | CCc1ccc(NC(=O)CSC2=Nc3ccccc3C3=NC(CCC(=O)NCCc4ccccc4)C(=O)N23)cc1 (configuration not stated) | 35.5 µM [falling, single point] | 12.6 µM [falling, partial curve, poor fit]
24 | O=C(c1ccco1)N1CCN(c2ncnc3c2[nH]c2ccc(Br)cc23)CC1 | 35.5 µM [rising, single point] | 35.5 µM [rising, single point]
25 | CCn1c(COc2ccc(Cl)cc2)nnc1SC1CCc2ccccc2C1=O (configuration not stated) | – | 3.98 µM [rising, full curve, poor fit]
26 | O=S(=O)(c1ccc(N2CCC(c3ccc(Cl)cc3)=N2)cc1)N(CCO)CCO | 15.8 µM [rising, single point] | 35.5 µM [rising, single point]

Row | SMILES | AC50 [1] | AC50 [2]
27 | CC(=O)c1c(C)[nH]c(C(=O)Nc2nc(-c3ccc(-c4ccccc4)cc3)cs2)c1C | 28.2 µM [falling, single point] | 1.78 µM [rising, partial curve]
28 | CN1CC(c2ccccc2Cl)C2(COc3ccccc3C2=O)C12C(=O)Nc1ccccc12 (configuration not stated) | 35.5 µM [falling, single point] | 35.5 µM [falling, single point]
29 | COc1cccc(C=Nc2ccccc2C(=O)Nc2ccccc2)c1O | 11.2 µM [rising, partial curve] | 17.8 µM [rising, partial curve]
30 | N#Cc1ccccc1S(=O)(=O)N1CCN(c2cnccn2)CC1 | 39.8 µM [rising, partial curve] | –
31 | CCS(=O)(=O)c1ncc(N(Cc2ccco2)Cc2sccc2C)c(C(=O)Nc2ccc(C)cc2C)n1 | 0.0112 µM [rising, full curve, poor fit] | –
32 | Cn1c2ccccc2c2c(C(=O)N3CCN(c4ccc(F)cc4)CC3)cn(C3CCCC3)c(=O)c21 | 15.8 µM [rising, single point] | 22.4 µM [rising, single point]
33 | COc1ccccc1NC(=O)Cc1nn(C)c(=O)c2ccccc12 | – | 3.16 µM [rising, single point]
34 | CCCCc1nn2c(=O)cc(COC(=O)c3cccc(OC)c3)nc2s1 | 0.112 µM [falling, full curve, poor fit] | 0.0501 µM [falling, full curve, poor fit]
35 | COc1ccc(/C=C2\CC/C(=C\c3ccc(OC)c(OC)c3)C2=O)cc1OC | – | 5.62 µM [falling, full curve]
36 | CC(C)c1nnc(NC(=O)CCS(=O)(=O)c2nc(-c3cccs3)cc(C(F)(F)F)n2)s1 | – | 2.51 µM [rising, single point]
37 | COc1ccc(S(=O)(=O)N2CCC(C(=O)N3CCC(C(N)=O)CC3)CC2)cc1Cl | 11.2 µM [rising, partial curve] | 15.8 µM [rising, single point]
38 | COc1cccc(C(=O)Nc2cccc(OCc3cc(=O)n4cc(C)ccc4n3)c2)c1 | 35.5 µM [falling, single point] | 35.5 µM [falling, partial curve]
39 | CCCc1cc(-c2[nH]ncc2-c2ccc3c(c2)OCCCO3)c(O)cc1O | – | 12.6 µM [rising, partial curve]
40 | O=C(NCc1ccco1)C(c1ccco1)N(CCc1ccccc1)C(=O)Cn1nnc2ccccc21 (configuration not stated) | – | 8.91 µM [rising, partial curve, poor fit]
41 | CCOc1ccc(C(=O)/C=C/c2ccc(SC)cc2)cc1 | 12.6 µM [falling, partial curve] | 17.8 µM [falling, partial curve]
42 | CSc1ccc(CN(C)CC(=O)Nc2ccc(C)cc2Br)cc1 | 12.6 µM [rising, partial curve] | 35.5 µM [rising, single point]
43 | O=C(C1CCN(Cc2ccc(F)cc2)CC1)N(CCc1ccccc1)Cc1ccccc1 | 35.5 µM [rising, partial curve, poor fit] | 35.5 µM [rising, single point]
44 | CC1Nc2nc(N(C)C)[nH]c(=O)c2NC1C (configuration not stated) | – | 0.141 µM [rising, full curve, poor fit]
45 | CCc1cccc(NC(=O)CN2C(=O)CCc3cc(S(=O)(=O)N4CCOCC4)ccc32)c1 | – | 0.631 µM [falling, full curve, poor fit]
46 | O=C(CN1CC(c2ccccc2)CC1=O)N/N=C/c1cc(Br)ccc1O (configuration not stated) | 39.8 µM [falling, partial curve, poor fit] | –
47 | O=C1C(Cc2ccccc2)C(c2ccccc2)N1c1ccccc1 (configuration not stated) | 35.5 µM [falling, single point] | 35.5 µM [falling, single point]
48 | COc1ccc(N2CCN(C(=O)CN(c3cccc(Br)c3)S(C)(=O)=O)CC2)cc1 | – | 35.5 µM [rising, single point]
49 | O=C(O)c1ccc(-n2cccn2)nc1 | – | 0.0316 µM [falling, full curve, poor fit]
50 | Cc1ccc2c(c1)c(=O)c(C(=O)c1ccncc1)cn2CC(=O)Nc1c(C)cccc1C | – | 0.0398 µM [falling, full curve, poor fit]
51 | Cc1cc(C(=O)NCCN2C(=O)S/C(=C\c3cccs3)C2=O)ccc1[N+](=O)[O-] | 3.55 µM [rising, full curve, poor fit] | –
52 | Cc1sc2nc(CN(Cc3cccs3)C(=O)NC3CCCCC3)[nH]c(=O)c2c1C | 1.41 µM [rising, full curve, poor fit] | 17.8 µM [rising, partial curve]

Copied from the list.
`COc1cccc(C=Nc2ccccc2C(=O)Nc2ccccc2)c1O` – AC50 [1]: 11.2 µM [rising, partial curve]
`O=C(COc1ccccc1)Nc1ccncc1` – AC50 [2]: 28.2 µM [falling, partial curve, poor fit]
`O=C(c1ccco1)N1CCN(c2ncnc3c2[nH]c2ccc(Br)cc23)CC1` – AC50 [1]: 35.5 µM [rising, single point]
